## Percent effect of library compounds

The chains behind the UniProt entries cited, without tags or fusion partners. Residues count along the entry.
UniProt P9WFT3, whole entry: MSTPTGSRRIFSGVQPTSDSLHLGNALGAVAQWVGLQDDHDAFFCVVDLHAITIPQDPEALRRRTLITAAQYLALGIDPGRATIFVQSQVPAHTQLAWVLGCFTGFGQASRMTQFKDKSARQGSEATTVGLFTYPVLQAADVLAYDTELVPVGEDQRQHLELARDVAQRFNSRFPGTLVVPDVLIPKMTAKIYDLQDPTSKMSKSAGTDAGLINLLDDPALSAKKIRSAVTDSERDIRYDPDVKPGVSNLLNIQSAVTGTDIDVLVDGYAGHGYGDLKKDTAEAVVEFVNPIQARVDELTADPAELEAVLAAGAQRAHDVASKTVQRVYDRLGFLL
UniProt P9WPC5, whole entry: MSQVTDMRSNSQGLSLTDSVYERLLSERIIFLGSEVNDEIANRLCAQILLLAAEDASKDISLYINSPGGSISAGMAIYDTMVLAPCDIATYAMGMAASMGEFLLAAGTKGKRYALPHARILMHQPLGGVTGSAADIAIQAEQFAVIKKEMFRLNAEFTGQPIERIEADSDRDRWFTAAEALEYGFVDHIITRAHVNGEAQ
UniProt P9WPC3, whole entry partner: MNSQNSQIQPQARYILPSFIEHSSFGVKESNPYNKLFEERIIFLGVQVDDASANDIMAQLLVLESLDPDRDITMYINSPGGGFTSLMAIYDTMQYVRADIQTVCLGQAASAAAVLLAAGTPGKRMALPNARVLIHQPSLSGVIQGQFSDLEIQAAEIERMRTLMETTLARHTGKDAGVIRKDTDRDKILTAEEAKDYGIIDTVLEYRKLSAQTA
UniProt I6X8D2, whole entry: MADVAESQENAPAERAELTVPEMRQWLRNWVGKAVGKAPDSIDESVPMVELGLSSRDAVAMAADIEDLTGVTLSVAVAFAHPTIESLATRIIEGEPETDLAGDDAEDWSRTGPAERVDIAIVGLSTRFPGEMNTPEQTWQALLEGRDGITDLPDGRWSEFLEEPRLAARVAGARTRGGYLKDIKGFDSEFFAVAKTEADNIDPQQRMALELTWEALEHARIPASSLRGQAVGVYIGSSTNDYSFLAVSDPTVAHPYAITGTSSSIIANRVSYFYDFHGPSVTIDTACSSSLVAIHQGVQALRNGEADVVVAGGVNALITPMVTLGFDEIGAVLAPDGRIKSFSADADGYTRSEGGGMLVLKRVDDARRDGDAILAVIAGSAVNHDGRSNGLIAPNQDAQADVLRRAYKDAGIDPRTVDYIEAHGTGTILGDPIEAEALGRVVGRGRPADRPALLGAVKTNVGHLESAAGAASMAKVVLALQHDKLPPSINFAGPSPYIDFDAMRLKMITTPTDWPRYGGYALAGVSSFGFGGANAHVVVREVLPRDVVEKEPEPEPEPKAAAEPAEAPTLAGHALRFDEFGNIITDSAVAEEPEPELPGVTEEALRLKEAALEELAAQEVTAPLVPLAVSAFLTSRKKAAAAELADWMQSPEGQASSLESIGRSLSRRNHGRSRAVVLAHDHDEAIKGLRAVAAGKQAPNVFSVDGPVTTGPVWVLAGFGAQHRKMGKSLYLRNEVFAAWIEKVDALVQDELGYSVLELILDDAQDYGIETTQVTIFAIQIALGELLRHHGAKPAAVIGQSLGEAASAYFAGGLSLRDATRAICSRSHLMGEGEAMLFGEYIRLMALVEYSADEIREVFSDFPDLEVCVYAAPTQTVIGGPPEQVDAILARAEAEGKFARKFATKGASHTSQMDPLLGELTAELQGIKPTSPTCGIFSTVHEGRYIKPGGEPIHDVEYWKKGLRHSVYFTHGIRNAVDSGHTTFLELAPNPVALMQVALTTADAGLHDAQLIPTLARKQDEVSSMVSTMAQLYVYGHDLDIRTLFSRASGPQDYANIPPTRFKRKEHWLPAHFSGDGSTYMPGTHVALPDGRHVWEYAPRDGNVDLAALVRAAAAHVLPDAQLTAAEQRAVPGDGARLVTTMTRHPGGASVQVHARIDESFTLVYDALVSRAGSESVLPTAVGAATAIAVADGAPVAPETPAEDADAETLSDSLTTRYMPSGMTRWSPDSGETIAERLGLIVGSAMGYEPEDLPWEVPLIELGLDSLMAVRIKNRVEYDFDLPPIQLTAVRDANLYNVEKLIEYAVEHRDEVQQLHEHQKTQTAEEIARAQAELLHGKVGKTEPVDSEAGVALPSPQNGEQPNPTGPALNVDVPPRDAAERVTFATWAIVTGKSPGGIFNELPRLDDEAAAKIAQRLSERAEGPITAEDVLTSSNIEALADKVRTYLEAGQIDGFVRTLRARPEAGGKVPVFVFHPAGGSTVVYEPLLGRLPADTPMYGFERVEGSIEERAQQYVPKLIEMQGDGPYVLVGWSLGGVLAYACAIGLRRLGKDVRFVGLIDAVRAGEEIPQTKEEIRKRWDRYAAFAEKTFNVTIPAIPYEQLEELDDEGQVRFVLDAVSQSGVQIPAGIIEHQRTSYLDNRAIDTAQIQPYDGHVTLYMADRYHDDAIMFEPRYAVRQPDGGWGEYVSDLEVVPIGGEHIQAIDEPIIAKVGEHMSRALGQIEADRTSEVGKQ
UniProt Q8IDJ8, 1-583: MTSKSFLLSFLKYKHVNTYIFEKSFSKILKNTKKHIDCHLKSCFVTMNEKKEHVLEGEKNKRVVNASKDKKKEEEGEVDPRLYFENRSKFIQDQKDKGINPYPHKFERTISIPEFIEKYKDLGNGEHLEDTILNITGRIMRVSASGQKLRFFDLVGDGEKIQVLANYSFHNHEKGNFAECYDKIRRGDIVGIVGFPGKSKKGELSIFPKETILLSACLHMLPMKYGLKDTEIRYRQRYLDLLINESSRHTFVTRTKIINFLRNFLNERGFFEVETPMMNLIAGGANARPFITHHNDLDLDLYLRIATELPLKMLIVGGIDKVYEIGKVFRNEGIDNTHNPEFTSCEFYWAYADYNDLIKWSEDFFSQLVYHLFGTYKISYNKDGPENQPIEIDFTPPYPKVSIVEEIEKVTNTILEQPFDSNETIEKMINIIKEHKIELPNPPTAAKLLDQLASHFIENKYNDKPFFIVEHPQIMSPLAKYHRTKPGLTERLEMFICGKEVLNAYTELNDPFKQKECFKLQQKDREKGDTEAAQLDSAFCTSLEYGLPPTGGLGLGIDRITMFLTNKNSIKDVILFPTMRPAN

Data taken from ChEMBL document CHEMBL3988442, “University of Dundee, Small-Polar-MMV Screening Library” (2021).

A: 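Tryptophan-tRNA ligase, Mycobacterium tuberculosis (UniProt P9WFT3). Enzyme assay of tryptophanyl-tRNA synthetase; the read-out is not stated. Concentration: 10 µM. Higher most likely means stronger inhibition; the record gives no direction and few retests gave an IC50. About 65,000 compounds were tested under these conditions; 0.098% (about 64) showed 50% or more at least once.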
B: 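Protease assay of ClpP1P2, read by the AMC dye that it sets free. Target: ClpP1P2, Mycobacterium tuberculosis (UniProt P9WPC5 and UniProt P9WPC3). Concentration: 50 µM. Higher reads as stronger inhibition, judged from the few compounds that gave an IC50. Most other retested compounds had strongly negative values. About 69,000 compounds were tested under these conditions; 0.015% (about 10) showed 50% or more at least once.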
C: 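Enzyme assay of the thioesterase domain of polyketide synthase 13; the read-out is not stated. Target: Polyketide synthase Pks13, Mycobacterium tuberculosis (UniProt I6X8D2). Concentration: 30 µM. Higher reads as stronger inhibition (inferred from which compounds were picked for retests). Of about 67,000 compounds tested this way, about 300 (0.46%) reached 50% or more in at least one test.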
D: 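Lysine-tRNA ligase, Plasmodium falciparum 3D7 (UniProt Q8IDJ8). Enzyme assay of the cytosolic lysyl-tRNA synthetase in 384-well plates, read by luminescence. Concentration: 30 µM. Higher reads as stronger inhibition, judged from the few compounds that gave an IC50. Size under these conditions: about 69,000 compounds, about 49 of them at 50% or above in at least one test.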

The filed quantity is “Percent Effect” (%). The record does not define 0% and 100%; most values in the screen are far below 50% and negative numbers occur (in some assays of this library far below -100). The compounds are a random part of those screened. A dash means the value is not listed here; it may have been measured.

compound	A	B	C	D
Cc1cnc(CNC2CCc3nc(C(C)C)nn3C2)cn1 (stereo not given)	-2.201	-15.49	-2.089	-3.152
NC(=O)NCC1CCCCN1C(=O)c1cccc(Cl)c1 (stereo not given)	-6.97	-29.74	-2.73	0.1283
CNC(=O)c1ccc(CN(C)c2ccc(C(F)(F)F)cn2)cc1	2.624	10.73	3.32	-0.2062
Cn1cc(CN2CC[C@@H]3[C@@H](CCC(=O)N3CCC3=CCCCC3)C2)cn1	4.359	-7.391	-14.53	-0.1715
O=C(C1=CCCC1)N1C[C@@H]2COC[C@]2(COCc2ccncc2)C1	-	6.263	-14.32	3.454
CCN1CCC2(CC1)C(=O)Nc1ccc(C(=O)NC)cc12	-1.361	-20.79	-19.71	1.505
O=C(NCC(F)F)c1ccc(S(=O)(=O)NCCc2c[nH]cn2)cc1	-1.771	-15.19	-5.496	8.016
Cc1cc(C)nc(N2CC[C@H](Oc3ccccc3F)[C@@H](O)CC2)n1	-5.679	-0.7373	-4.099	0.9987
O=C(Nc1ccccc1OCC1CCCCO1)c1ccc(O)nc1 (stereo not given)	-0.7323	-3.322	-12.46	3.024
Cc1cc(CN(C)CC(c2cccs2)N2CCOCC2)on1 (stereo not given)	-7.851	9.79	-2.159	2.452
Cc1ncsc1C(=O)NC1CCN(Cc2ccc(C(F)(F)F)cc2)CC1	10.64	-2.431	-13.58	-3.585
CN(C)CCCNC(=O)C(c1cccc(F)c1)N(C)C (stereo not given)	-0.6522	-10.72	1.488	-1.459
CCSc1cc(C(=O)NCCc2nnc(-c3ccco3)[nH]2)ccn1	4.562	0.09165	-12.51	-5.718
Cc1cc(-c2nn(C)c(Cl)c2CN2CCOC(C(=O)O)C2)no1 (stereo not given)	0	14.4	7.166	8.687
CC(C)(C)OC(=O)N1CCCC[C@H]1C(=O)NCc1nccs1	-0.8382	-28.66	-13.66	0.03334
CC(C)N1CCCC(C(=O)N(C)CCCc2cnn(C)c2)C1 (stereo not given)	3.21	-8.868	-24.15	2.836
Cc1cc(CN(Cc2cccs2)CC2CCCO2)no1 (stereo not given)	1.267	-0.6988	-4.05	0.1936
O=C(N1CCCC1)N1Cc2nccn2CC(CN2CCCC2)C1 (stereo not given)	-1.482	-5.59	-12.88	2.177
Cc1ccccc1C(NC(=O)NCC1(O)CCC1)C1CC1 (stereo not given)	5.318	14.88	-1.281	1.608
CCOc1ccc(C#N)cc1NC(=O)N1CCCC(NC(=O)CC)C1 (stereo not given)	-2.006	-8.098	-1.188	3.471
CC(C)Cc1noc(CN2CCOC(Cn3cncn3)C2)n1 (stereo not given)	-1.846	-1.53	-6.128	0.573
Cc1[nH]c2c(C)ccc(C)c2c1CC(=O)NC1CCCNC1=O (stereo not given)	2.041	-16.91	-7.297	10.11
Cc1ccc(CN2CCOC3(COCCN(C(C)C)C3)C2)o1 (stereo not given)	1.744	-3.936	-7.284	0.7568
c1cc(CN2CCC3(CC2)COC(COCC2CC2)C3)co1 (stereo not given)	2.762	-2.767	-18.3	6.3
CN(C)[C@H]1CN(C(=O)CCCc2ccc(F)cc2)C[C@@H]1C1CC1	-5.475	-16.11	-14.87	2.517
CCc1nnc(CN2CCC(c3nc4cc(Cl)ccc4o3)CC2)o1	4.388	-4.373	-4.896	1.22
O=C(NC[C@H]1OC[C@@H](NC2COC2)[C@@H]1O)c1cccs1	-2.334	-5.361	-10.79	3.975
Cc1nc(N2CCN(C)CC2)ncc1C(=O)N1CC[C@](C)(O)[C@H](C)C1	-4.231	-1.015	-33.27	2.667
c1ccc(OCCCn2ccnc2-c2cn(C3CCNCC3)nn2)cc1	3.028	-0.5983	-	5.081
O=C(Cc1cccs1)NCc1ccnc(C2CCCOC2)n1 (stereo not given)	3.59	-11.9	-	0.5657
c1ncn(CCNC2CCCN(Cc3noc(C4CC4)n3)C2)n1 (stereo not given)	2.249	13.47	-10.73	1.822
Cn1ccc(C(=O)NCc2ccc(Cn3ccnc3)cc2)cc1=O	2.183	-4.507	-31.5	8.864
Cc1nc(CNC(=O)NCC(O)c2ccc(F)c(F)c2)cs1 (stereo not given)	1.263	9.276	-10.91	-0.3737
CCOc1cccc2c1OCC(C(=O)NS(=O)(=O)c1ccc(Cl)s1)=C2	-2.792	-12.27	-5.711	-0.5235
CN(C)C(=O)N1CCN(Cc2nnc(C(C)(C)C)o2)CC1	-2.554	-17.31	-12.03	-2.775
CC(=O)N1CCCN(C(C)C(=O)Nc2ccnn2C(C)C)CC1 (stereo not given)	-4.036	-0.7931	-28.07	5.156
O=C(O)CCc1nc2nccc(-c3ccc(F)cc3)n2n1	-	9.144	16.62	0.6216
Cc1ncc(C(=O)N2C[C@H]3CC[C@@H]2CN(S(=O)(=O)N(C)C)C3)c(C)n1	2.842	-4.936	-8.345	0.3115
O=C(CC1CCCC1)Nc1ccc(-n2cc(Br)cn2)nc1	0.3501	1.034	-18.79	-1.333
CSc1nsc(NC(=O)N(C)Cc2ccc3c(c2)OCO3)n1	-1.125	-5.432	-22.62	6.664
OC(COc1ccc(F)cc1)CN1CCC(Cn2cccn2)CC1 (stereo not given)	2.715	-3.069	-11.13	2.409
O=C1NC2(Nc3ncccc31)C(=O)Nc1c2ccc(Cl)c1F (stereo not given)	-2.142	0.1657	-19.78	6.651
CCn1cc(CN(C)S(=O)(=O)c2ccc(C(C)C)cc2)cn1	-1.425	-0.5142	-8.087	0.7238
c1coc(CNCC2Cn3nncc3CO2)c1 (stereo not given)	-	-2.128	-13.54	4.196
CN(C)S(=O)(=O)N1C[C@@H]2CN(Cc3ccoc3)CCO[C@@H]2C1	6.614	18.19	-42.77	-3.01
O=C(O)[C@H]1C[C@H](C(=O)NCc2ccncc2)CN(CCC(F)(F)F)C1	-0.4468	3.125	-14.6	8.397
O=C1OCCN1CC(=O)N1C[C@H]2CC[C@@H]1CN(Cc1cscn1)C2	2.967	3.734	-7.806	4.096
CC(C)c1cc(C(=O)N2CCC3(CC2)c2ccccc2[C@@H](N)[C@@H]3O)cs1	-0.3298	-3.808	16.27	0.7075
CC(C)C(NC(=O)NCCNc1ccccn1)c1cccs1 (stereo not given)	-3.437	-1.415	-21.31	-0.2203
COC1CCN(S(=O)(=O)N2C[C@H](c3ccccc3)[C@@H](N)C2)CC1	-3.489	-7.452	-4.946	0.5995
c1cc(-c2n[nH]cc2-c2ccnc(N3CCCC3)n2)ccn1	-	-2.205	-28.23	2.729
CC(C)CNC(=O)[C@H]1CCS(=O)(=O)[C@@H]2CN(Cc3cccnc3)C[C@H]12	-4.265	-0.6652	-16.02	2.361
C1CN(c2nc(C3CC3)no2)CCN(C2CCOCC2)C1	-1.571	2.531	-48.14	2.15
CS(=O)(=O)N1CCC(c2nnc(CN3CCCC3)n2C2CC2)CC1	-2.624	-0.5259	-12.58	3.758
O=C(Nc1cccc(N2CCCC2)c1)N[C@H](CCO)c1ccccc1	-0.784	-12.59	27.6	2.558
CCN1CCC(CNC(=O)C(c2ccc(F)cc2)N(C)C)(N(C)C)CC1 (stereo not given)	6.155	-0.697	-36.3	5.342
CCOC1CC2(CCN(Cc3cnn(C)c3)CC2)c2ccc(C)cc21 (stereo not given)	-7.502	-4.696	-3.572	4.149
CCc1nc(CCNC(=O)NC2CCC(=O)N(C)C2)sc1C (stereo not given)	-3.633	-0.1277	-24.74	0.06874
Cn1ccc(C(=O)N2CCOC(c3ccccc3)C2)cc1=O (stereo not given)	-2.573	6.791	-12.44	10.17
Cc1ccn(Cc2nc(CC(C)C)no2)c(=O)c1	2.651	-10.13	-7.825	1.251
CC(C)COCCC(=O)Nc1ccc2oc(=O)n(CCN(C)C)c2c1	-2.969	14.46	-4.143	5.009
COc1ccc([C@@H]2CN(C(=O)c3cscn3)C[C@H]2C(=O)O)cc1	-1.098	7.414	-3.991	3.008
CCn1cc(-c2nn3c(C(F)(F)F)nnc3s2)c(C)n1	-2.039	-0.7358	-3.353	-2.332
CC(C1CCN(Cc2cnn(C)c2C2CC2)CC1)N(C)C (stereo not given)	-2.374	3.74	-46.3	1.796
Cc1cc(C)n(CC2CN(CCOc3ccccc3F)CCO2)n1 (stereo not given)	-9.952	-27.73	-4.982	-0.9323

Some entries from above, unchanged:

| compound | A | B | C | D |
|---|---|---|---|---|
| `Cc1cnc(CNC2CCc3nc(C(C)C)nn3C2)cn1` (stereo not given) | -2.201 | -15.49 | -2.089 | -3.152 |
| `CC(C)c1cc(C(=O)N2CCC3(CC2)c2ccccc2[C@@H](N)[C@@H]3O)cs1` | -0.3298 | -3.808 | 16.27 | 0.7075 |
| `CCOc1cccc2c1OCC(C(=O)NS(=O)(=O)c1ccc(Cl)s1)=C2` | -2.792 | -12.27 | -5.711 | -0.5235 |
| `CC(C)C(NC(=O)NCCNc1ccccn1)c1cccs1` (stereo not given) | -3.437 | -1.415 | -21.31 | -0.2203 |
| `Cc1ccn(Cc2nc(CC(C)C)no2)c(=O)c1` | 2.651 | -10.13 | -7.825 | 1.251 |
| `c1coc(CNCC2Cn3nncc3CO2)c1` (stereo not given) | - | -2.128 | -13.54 | 4.196 |
| `O=C(Cc1cccs1)NCc1ccnc(C2CCCOC2)n1` (stereo not given) | 3.59 | -11.9 | - | 0.5657 |
| `CC(C1CCN(Cc2cnn(C)c2C2CC2)CC1)N(C)C` (stereo not given) | -2.374 | 3.74 | -46.3 | 1.796 |